According to paper PMC4741493:
No constants are given. Whether binding was seen depends on the method and setting. In cells and extracts the contact can be indirect. For part of these data: A result given as binding can be weak or reduced; the word gives no strength.

Protein sequences, listed by entry. Tags and fused reporters are not part of them. Lines headed by an entry give the natural chain unless they say otherwise; changes in a name come on top.
UniProt P35613: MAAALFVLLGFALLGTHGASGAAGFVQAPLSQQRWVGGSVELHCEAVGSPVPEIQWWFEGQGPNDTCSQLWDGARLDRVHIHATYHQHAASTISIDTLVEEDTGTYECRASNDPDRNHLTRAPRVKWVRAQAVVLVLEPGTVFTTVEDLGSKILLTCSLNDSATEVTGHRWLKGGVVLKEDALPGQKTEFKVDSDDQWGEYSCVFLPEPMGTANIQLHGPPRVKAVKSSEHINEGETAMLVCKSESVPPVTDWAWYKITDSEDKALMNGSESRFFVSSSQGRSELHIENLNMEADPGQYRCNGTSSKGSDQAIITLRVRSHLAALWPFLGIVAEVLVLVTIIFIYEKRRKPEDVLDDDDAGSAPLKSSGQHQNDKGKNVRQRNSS

Columns and labels:
[1] = target: CD147 (human (endogenous in HepG2)) (UniProt P35613); assay: condition: only cells treated with Tg and the CaMKII inhibitor KN-93; co-IP; endogenous CD147 complexes from HepG2 cells treated with Tg and the CaMKII inhibitor KN-93 in combination, 1% OG buffer lysate, protein A-agarose overnight at 4°C, blotted for CaMKP
[2] = target: CD147 (human (endogenous in HepG2)) (UniProt P35613); assay: condition: only cells treated with BAPTA-AM (low [Ca^2+]i); co-IP; endogenous CD147 complexes from HepG2 cells treated with BAPTA-AM (low [Ca^2+]i), 1% OG buffer lysate, protein A-agarose overnight at 4°C, blotted for CaMKP
[3] = target: CD147 (human (endogenous in HepG2)) (UniProt P35613); assay: co-IP; endogenous CD147 complexes from HepG2 cells treated with Tg (high [Ca^2+]i), 1% OG buffer lysate, protein A-agarose overnight at 4°C, blotted for CaMKP

B1: Ca^2+-dependent protein kinase phosphatase (CaMKP) (enzyme, UniProt P49593 1-454)
chain: MSSGAPQKSSPMASGAEETPGFLDTLLQDFPALLNPEDPLPWKAPGTVLSQEEVEGELAELAMGFLGSRKAPPPLAAALAHEAVSQLLQTDLSEFRKLPREEEEEEEDDDEEEKAPVTLLDAQSLAQSFFNRLWEVAGQWQKQVPLAARASQRQWLVSIHAIRNTRRKMEDRHVSLPSFNQLFGLSDPVNRAYFAVFDGHGGVDAARYAAVHVHTNAARQPELPTDPEGALREAFRRTDQMFLRKAKRERLQSGTTGVCALIAGATLHVAWLGDSQVILVQQGQVVKLMEPHRPERQDEKARIEALGGFVSHMDCWRVNGTLAVSRAIGDVFQKPYVSGEADAASRALTGSEDYLLLACDGFFDVVPHQEVVGLVQSHLTRQQGSGLRVAEELVAAARERGSHDNITVMVVFLRDPQELLEGGNQGEGDPQAEGRRQDLPSSLPEPETQAPPRS
B1 was tested, and the binding [1] was “no binding”, the binding [2] was “no binding” and the binding [3] was “binds”.
